Measurements reported in PubChem BioAssay AID330 (DTP/NCI, 2004).
The list shows only some results of the screen, not a fair sample: its compounds were picked by chemical class. Not every dose and run of a compound is shown. T/C gives the treated animals as a percentage of the vehicle group. Some entries give survivors of the animals treated and no T/C: the source holds a T/C of zero for them, seemingly a mark for toxic or unscored doses. Some doses without a T/C left all or most animals alive at the check, yet need not have been tolerated: survival well below the control is almost never listed, so the zero probably covers shortened survival too. Survivors were counted at the toxicity check, usually on the fifth day, unless a day is given; later deaths do not show. Schedules are NCI's codes, taken here to give the interval after Q, in days (D) or hours (H), and the number of doses after X. Where survival is the endpoint, this PubChem deposit counts one and a half times the control or more as active, and values a quarter to a half above the control carry no call in these data; other NCI protocols may use other cut-offs. Some T/C values carry the count of animals alive at the toxicity check (mostly the fifth day); where neither a count nor a note follows, no animal had died by that day. Some doses were run more than once; the results are listed from low to high. Some entries show no survivor count and are marked so; the dose need not have been tolerated. Some metal complexes and salts are drawn in pieces, as in the source, so charges may not balance.

Tested on: P388 leukemia ip, CD2F1 mice, survival T/C
Assay: NCI In Vivo Anticancer Drug Screen. Data for tumor model P388 Leukemia (intraperitoneal) in CD2F1 (CDF1) mice
Details: T/C endpoint: median survival time, higher T/C = longer survival
[1] = dose: 100.0 mg/kg/injection, schedule: Q01DX001 (ip), vehicle: Klucel (hydroxypropylcellulose) (HPC)
[2] = dose: 200.0 mg/kg/injection, schedule: Q01DX001 (ip), vehicle: Klucel (hydroxypropylcellulose) (HPC)
[3] = dose: 400.0 mg/kg/injection, schedule: Q01DX001 (ip), vehicle: Klucel (hydroxypropylcellulose) (HPC)
[4] = dose: 50.0 mg/kg/injection, schedule: Q01DX009 (ip), vehicle: saline with Tween-80
[5] = dose: 100.0 mg/kg/injection, schedule: Q01DX009 (ip), vehicle: saline with Tween-80
[6] = dose: 200.0 mg/kg/injection, schedule: Q01DX009 (ip), vehicle: saline with Tween-80
[7] = dose: 25.0 mg/kg/injection, schedule: Q01DX009 (ip), vehicle: saline with Tween-80
[8] = dose: 50.0 mg/kg/injection, schedule: Q01DX005 (ip), vehicle: Klucel (hydroxypropylcellulose) (HPC)

## C/C(=C/c1cnc([N+](=O)[O-])n1C)[N+](=O)[O-]
dose: 25.0 mg/kg/injection, schedule: Q01DX001 (ip), vehicle: Klucel (hydroxypropylcellulose) (HPC)
  T/C: 113 % of control
dose: 50.0 mg/kg/injection, schedule: Q01DX001 (ip), vehicle: Klucel (hydroxypropylcellulose) (HPC)
  T/C: 115 % of control
[1]
  T/C: 102 and 116 % of control
[2]
  survivor count: 0 of 6
[3]
  survivor count: 0 of 6

## CC(C)OP(C)(=O)O.[Gd]
[4]
  T/C: 90 % of control [survivor count not shown]
[5]
  T/C: 90 % of control [survivor count not shown]

## O=[N+]([O-])c1cc([N+](=O)[O-])c2nonc2c1O
dose: 50.0 mg/kg/injection, schedule: Q01DX005 (ip), vehicle: saline
  T/C: 100 % of control
dose: 100.0 mg/kg/injection, schedule: Q01DX005 (ip), vehicle: saline
  T/C: 97 % of control
dose: 200.0 mg/kg/injection, schedule: Q01DX005 (ip), vehicle: saline
  survivor count: 5 of 5

## O=[N+]([O-])c1cc([N+](=O)[O-])c(-n2cnc([N+](=O)[O-])c2)c([N+](=O)[O-])c1
dose: 25.0 mg/kg/injection, schedule: Q04DX003 (ip), vehicle: saline
  survivor count: 0 of 6
dose: 50.0 mg/kg/injection, schedule: Q04DX003 (ip), vehicle: saline
  survivor count: 0 of 6
dose: 100.0 mg/kg/injection, schedule: Q04DX003 (ip), vehicle: saline
  survivor count: 1 of 6
dose: 200.0 mg/kg/injection, schedule: Q04DX003 (ip), vehicle: saline
  survivor count: 0 of 6
dose: 400.0 mg/kg/injection, schedule: Q04DX003 (ip), vehicle: saline
  survivor count: 0 of 6

## COc1ccc(N2CC=C(c3ccccc3)OP2(=O)Cl)cc1 (configuration not stated)
dose: 25.0 mg/kg/injection, schedule: Q01DX005 (ip), vehicle: Klucel (hydroxypropylcellulose) (HPC), evaluated on day 20
  T/C: 109 % of control
dose: 25.0 mg/kg/injection, schedule: Q01DX005 (ip), vehicle: Klucel (hydroxypropylcellulose) (HPC), evaluated on day 30
  T/C: 105 % of control
dose: 50.0 mg/kg/injection, schedule: Q01DX005 (ip), vehicle: Klucel (hydroxypropylcellulose) (HPC), evaluated on day 20
  T/C: 110 % of control
dose: 50.0 mg/kg/injection, schedule: Q01DX005 (ip), vehicle: Klucel (hydroxypropylcellulose) (HPC), evaluated on day 30
  T/C: 106 and 108 % of control
dose: 100.0 mg/kg/injection, schedule: Q01DX005 (ip), vehicle: Klucel (hydroxypropylcellulose) (HPC), evaluated on day 20
  T/C: 109 % of control
dose: 100.0 mg/kg/injection, schedule: Q01DX005 (ip), vehicle: Klucel (hydroxypropylcellulose) (HPC), evaluated on day 30
  T/C: 105 and 116 % of control [5 of 6 alive]
dose: 200.0 mg/kg/injection, schedule: Q01DX005 (ip), vehicle: Klucel (hydroxypropylcellulose) (HPC), evaluated on day 20
  T/C: 122 % of control
dose: 200.0 mg/kg/injection, schedule: Q01DX005 (ip), vehicle: Klucel (hydroxypropylcellulose) (HPC), evaluated on day 30
  T/C: 116 and 130 % of control

## COP(C)(=O)OC.COP(C)(=O)OC.COP(C)(=O)OC.COP(C)(=O)OC.COP(C)(=O)OC.COP(C)(=O)OC.[Fe+3].[O-][Cl+3]([O-])([O-])O
[4]
  T/C: 91 % of control [survivor count not shown]
[5]
  T/C: 113 % of control [survivor count not shown]
[6]
  T/C: 89 % of control [survivor count not shown]

## CC(C)OP(C)(=O)O.[Eu]
[7]
  T/C: 98 % of control [survivor count not shown]
[4]
  T/C: 89 [survivor count not shown] and 91 % of control [survivor count not shown]
[5]
  T/C: 91 % of control [survivor count not shown]
[6]
  T/C: 90 % of control [survivor count not shown]

## CC1(C)OCC(COC(=O)N(CCCl)CCCl)O1 (configuration not stated)
dose: 1.56 mg/kg/injection, schedule: Q01DX009 (ip), vehicle: water
  T/C: 100 % of control
dose: 3.13 mg/kg/injection, schedule: Q01DX009 (ip), vehicle: water
  T/C: 107 % of control
dose: 6.25 mg/kg/injection, schedule: Q01DX009 (ip), vehicle: water
  T/C: 97 and 109 % of control
dose: 12.5 mg/kg/injection, schedule: Q01DX009 (ip), vehicle: water
  T/C: 102 and 109 % of control
dose: 25.0 mg/kg/injection, schedule: Q01DX009 (ip), vehicle: water
  T/C: 120 and 131 % of control
dose: 50.0 mg/kg/injection, schedule: Q01DX009 (ip), vehicle: water
  T/C: 127 % of control
dose: 100.0 mg/kg/injection, schedule: Q01DX009 (ip), vehicle: water
  T/C: 172 % of control

## ClCCNc1nccnn1
dose: 25.0 mg/kg/injection, schedule: Q01DX001 (ip), vehicle: saline
  T/C: 106 % of control
dose: 50.0 mg/kg/injection, schedule: Q01DX001 (ip), vehicle: saline
  T/C: 100 % of control
dose: 100.0 mg/kg/injection, schedule: Q01DX001 (ip), vehicle: saline
  T/C: 94 and 99 % of control
dose: 200.0 mg/kg/injection, schedule: Q01DX001 (ip), vehicle: saline
  survivor count: 0 of 6
dose: 400.0 mg/kg/injection, schedule: Q01DX001 (ip), vehicle: saline
  survivor count: 0 of 6

## O=[N+]([O-])c1ccc(OCC(COc2ccc([N+](=O)[O-])cc2[N+](=O)[O-])(COc2ccc([N+](=O)[O-])cc2[N+](=O)[O-])COc2ccc([N+](=O)[O-])cc2[N+](=O)[O-])c([N+](=O)[O-])c1
dose: 12.5 mg/kg/injection, schedule: Q01DX009 (ip), vehicle: saline with Tween-80
  T/C: 105 % of control
[7]
  T/C: 104 % of control
[4]
  T/C: 107 % of control

## O=[N+]([O-])c1cc([N+](=O)[O-])c(C=Cc2c([N+](=O)[O-])cc([N+](=O)[O-])c(O)c2[N+](=O)[O-])c([N+](=O)[O-])c1
dose: 100.0 mg/kg/injection, schedule: Q01DX009 (ip), vehicle: saline
  survivor count: 2 of 6
dose: 200.0 mg/kg/injection, schedule: Q01DX009 (ip), vehicle: saline
  survivor count: 0 of 6
dose: 400.0 mg/kg/injection, schedule: Q01DX009 (ip), vehicle: saline
  survivor count: 0 of 6

## O=P1(Cl)OC(c2ccc(Cl)cc2)=CCN1c1ccc(Cl)cc1 (configuration not stated)
dose: 100.0 mg/kg/injection, schedule: Q04DX002 (ip), vehicle: saline with Tween-80
  T/C: 93 % of control
dose: 200.0 mg/kg/injection, schedule: Q04DX002 (ip), vehicle: saline with Tween-80
  T/C: 104 % of control
dose: 400.0 mg/kg/injection, schedule: Q04DX002 (ip), vehicle: saline with Tween-80
  T/C: 108 % of control

## COc1ccc(C2=CCN(c3ccc(Cl)cc3)P(=O)(Cl)O2)cc1 (configuration not stated)
dose: 25.0 mg/kg/injection, schedule: Q01DX005 (ip), vehicle: Klucel (hydroxypropylcellulose) (HPC)
  T/C: 102 % of control
[8]
  T/C: 110 % of control
  survivor count: 5 of 5
dose: 100.0 mg/kg/injection, schedule: Q01DX005 (ip), vehicle: Klucel (hydroxypropylcellulose) (HPC)
  T/C: 93 and 117 % of control
dose: 200.0 mg/kg/injection, schedule: Q01DX005 (ip), vehicle: Klucel (hydroxypropylcellulose) (HPC)
  T/C: 107 [4 of 5 alive] and 121 % of control [5 of 6 alive]

## CC(C)(C)[Si](C)(C)OC(=O)N(CCCl)CCCl
[1]
  T/C: 131 % of control
[2]
  T/C: 137 % of control
[3]
  T/C: 174 % of control

## O=[N+]([O-])OCC1(CO[N+](=O)[O-])COC1
dose: 25.0 mg/kg/injection, schedule: Q01DX009 (ip), vehicle: Klucel (hydroxypropylcellulose) (HPC)
  T/C: 102 % of control [survivor count not shown]
dose: 50.0 mg/kg/injection, schedule: Q01DX009 (ip), vehicle: Klucel (hydroxypropylcellulose) (HPC)
  T/C: 105 % of control [survivor count not shown]
dose: 100.0 mg/kg/injection, schedule: Q01DX009 (ip), vehicle: Klucel (hydroxypropylcellulose) (HPC)
  T/C: 99 [survivor count not shown] and 109 % of control [survivor count not shown]
